Test results as given in the supplement of paper PMC10331698.
± gives the standard deviation of the averaged measurements. Most entries show no effect beyond the scatter of the controls.

Assays:
Assay in all cases: level (log10 ratio to DMSO vehicle control); higher = higher biomarker level / cell amount than vehicle control
[1] = compound: C=CC(=O)OCC(F)(F)C(F)(F)C(F)(F)COC(=O)C=C [1H,1H,5H,5H-Perfluoro-1,5-pentanediol diacrylate]; conditions: 2200 nM; in DMSO
Protocol: (§1)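 BioMAP Diversity Plus panel of 12 human primary cell co-culture systems (3C, 4H, LPS, SAg, BT, BF4T, BE3C, CASM3C, HDF3CGF, KF3CT, MyoF, Mphg). Compounds were added 1 h before stimulation and left for 24 h (MyoF 48 h; BT 72 h for soluble read-outs or 6 d for IgG). Biomarkers were read by ELISA, cytotoxicity by SRB, PBMC viability and proliferation by Alamar Blue. Each well value was divided by the mean of 8 DMSO control wells on the same plate and log10 transformed; duplicate blinded samples were tested at 4 concentrations.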

[2] = compound: C=CC(=O)OCCC(F)(F)C(F)(F)C(F)(F)C(F)(F)C(F)(F)C(F)(F)C(F)(F)C(F)(F)F [8:2 Fluorotelomer acrylate]; conditions: 2200 nM; in DMSO
Protocol: as §1

[3] = compound: C=CC(=O)OCCC(F)(F)C(F)(F)C(F)(F)C(F)(F)F [2-(Perfluorobutyl)ethyl acrylate]; conditions: 2200 nM; in DMSO
Protocol: as §1

[4] = compound: FC(F)(F)C(F)(C(F)(F)F)C(F)(F)C(F)(F)CC1CO1 [3-(Perfluoro-3-methylbutyl)-1,2-propenoxide]; conditions: in DMSO
Protocol: as §1

[5] = compound: FC(F)(F)C(F)(F)C(F)(F)C(F)(F)C(F)(F)C(F)(F)I [Perfluoro-1-iodohexane]; conditions: in DMSO
Protocol: as §1

[6] = compound: FC(F)(I)C(F)(F)C(F)(F)C(F)(F)C(F)(F)C(F)(F)I [1,6-Diiodoperfluorohexane]; conditions: 2200 nM; in DMSO
Protocol: as §1

[7] = compound: O=C(Cl)C(F)(F)C(F)(F)C(F)(F)C(=O)Cl [Hexafluoroglutaryl chloride]; conditions: 2200 nM; in DMSO
Protocol: as §1

[8] = compound: O=C(O)C(F)(F)C(F)(F)C(F)(F)C(F)(F)C(F)(F)C(F)(F)C(F)(F)C(F)(F)C(F)(F)C(F)(F)C(F)(F)C(F)(F)C(F)(F)F [Perfluorotetradecanoic acid]; conditions: in DMSO
Protocol: as §1

[9] = compound: O=C(O)C=C(C(F)(F)F)C(F)(F)F [3,3-Bis(trifluoromethyl)-2-propenoic acid]; conditions: in DMSO
Protocol: as §1

[10] = compound: O=S(=O)(O)C(F)(F)C(F)(F)C(F)(F)C(F)(F)C(F)(F)C(F)(F)F [Perfluorohexanesulfonic acid]; conditions: 2200 nM; in DMSO
Protocol: as §1

[11] = compound: O=S(=O)(O)CCC(F)(F)C(F)(F)C(F)(F)C(F)(F)F [4:2 Fluorotelomer sulfonic acid]; conditions: 2200 nM; in DMSO
Protocol: as §1

[12] = compound: OCC(F)(F)C(F)(F)C(F)(F)CO [Hexafluoroamylene glycol]; conditions: 2200 nM; in DMSO
Protocol: as §1

[13] = compound: OCCCC(F)(F)C(F)(F)C(F)(F)C(F)(F)C(F)(F)C(F)(F)C(F)(F)F [7:3 Fluorotelomer alcohol]; conditions: 2200 nM; in DMSO
Protocol: as §1

SAg:CD38
level (log10) [1]: 0.0175 ± 0.053 | level (log10) [2]: -0.005 ± 0.0042 | level (log10) [3]: 0.016 ± 0.059 | level (log10) ([4]; 740 nM): 0.0115 ± 0.012 | level (log10) ([4]; 2200 nM): -0.0015 ± 0.012 | level (log10) ([5]; 2200 nM): -0.0145 ± 0.13 | level (log10) ([5]; 6700 nM): -0.059 ± 0.15 | level (log10) ([5]; 20000 nM): -0.01 ± 0.02 | level (log10) ([5]; 60000 nM): 0.0005 ± 0.076 | level (log10) [6]: 0.0165 ± 0.029 | level (log10) [7]: -0.024 ± 0.055 | level (log10) ([8]; 740 nM): -0.005 ± 0.023 | level (log10) ([8]; 2200 nM): -0.039 ± 0.045 | level (log10) ([9]; 2200 nM): 0.0035 ± 0.0078 | level (log10) ([9]; 6700 nM): 0.0025 ± 0.013 | level (log10) ([9]; 20000 nM): -0.019 ± 0.017 | level (log10) ([9]; 60000 nM): -0.073 ± 0.0028 | level (log10) [10]: 0.003 ± 0.045 | level (log10) [11]: 0.022 ± 0.023 | level (log10) [12]: 0.0085 ± 0.035 | level (log10) [13]: 0.0485 ± 0.059

3C:CD106/VCAM-1
level (log10) [1]: -0.032 ± 0.0042 | level (log10) [2]: -0.012 ± 0.0014 | level (log10) [3]: -0.0235 ± 0.0064 | level (log10) ([4]; 740 nM): -0.0145 ± 0.005 | level (log10) ([4]; 2200 nM): -0.0155 ± 0.0021 | level (log10) ([5]; 2200 nM): 0.009 ± 0.0071 | level (log10) ([5]; 6700 nM): 0.003 ± 0.024 | level (log10) ([5]; 20000 nM): 0.0075 ± 0.018 | level (log10) ([5]; 60000 nM): 0 ± 0.047 | level (log10) [6]: -0.0235 ± 0.0078 | level (log10) [7]: -0.0145 ± 0.033 | level (log10) ([8]; 740 nM): 0.0065 ± 0.005 | level (log10) ([8]; 2200 nM): -0.003 ± 0.0085 | level (log10) ([9]; 2200 nM): -0.0455 ± 0.0078 | level (log10) ([9]; 6700 nM): -0.0575 ± 0.03 | level (log10) ([9]; 20000 nM): -0.0805 ± 0.025 | level (log10) ([9]; 60000 nM): -0.157 ± 0.017 | level (log10) [10]: -0.03 ± 0.048 | level (log10) [11]: 0.0075 ± 0.019 | level (log10) [12]: 0.0105 ± 0.0078 | level (log10) [13]: 0 ± 0.0099

CASM3C:CD87/uPAR
level (log10) [1]: -0.0015 ± 0.0078 | level (log10) [2]: -0.0595 ± 0.05 | level (log10) [3]: -0.018 ± 0.033 | level (log10) ([4]; 740 nM): -0.0045 ± 0.0035 | level (log10) ([4]; 2200 nM): -0.0205 ± 0.013 | level (log10) ([5]; 2200 nM): 0.008 ± 0.0057 | level (log10) ([5]; 6700 nM): 0 ± 0.0085 | level (log10) ([5]; 20000 nM): -0.0105 ± 0.03 | level (log10) ([5]; 60000 nM): 0.003 ± 0.021 | level (log10) [6]: -0.011 | level (log10) [7]: -0.0345 ± 0.042 | level (log10) ([8]; 740 nM): -0.008 ± 0.055 | level (log10) ([8]; 2200 nM): 0.008 ± 0.035 | level (log10) ([9]; 2200 nM): -0.034 ± 0.0028 | level (log10) ([9]; 6700 nM): -0.0235 ± 0.023 | level (log10) ([9]; 20000 nM): -0.029 ± 0.031 | level (log10) ([9]; 60000 nM): -0.031 ± 0.023 | level (log10) [10]: 0.002 ± 0.024 | level (log10) [11]: -0.006 ± 0.013 | level (log10) [12]: 0.011 ± 0.0071 | level (log10) [13]: -0.0205 ± 0.043

SAg:CCL2/MCP-1
level (log10) [1]: -0.0055 ± 0.016 | level (log10) [2]: 0.0075 ± 0.028 | level (log10) [3]: -0.008 ± 0.027 | level (log10) ([4]; 740 nM): 0.008 ± 0.045 | level (log10) ([4]; 2200 nM): -0.019 ± 0.0085 | level (log10) ([5]; 2200 nM): 0.0205 ± 0.0035 | level (log10) ([5]; 6700 nM): 0.006 ± 0.018 | level (log10) ([5]; 20000 nM): -0.0045 ± 0.021 | level (log10) ([5]; 60000 nM): 0.005 ± 0.05 | level (log10) [6]: 0.0185 ± 0.0092 | level (log10) [7]: 0.0085 ± 0.005 | level (log10) ([8]; 740 nM): -0.029 ± 0.038 | level (log10) ([8]; 2200 nM): -0.0065 ± 0.022 | level (log10) ([9]; 2200 nM): 0 ± 0.017 | level (log10) ([9]; 6700 nM): -0.0145 ± 0.00071 | level (log10) ([9]; 20000 nM): -0.0535 ± 0.0078 | level (log10) ([9]; 60000 nM): -0.079 ± 0.042 | level (log10) [10]: 0.0125 ± 0.0092 | level (log10) [11]: 0.002 ± 0.0099 | level (log10) [12]: 0.0055 ± 0.013 | level (log10) [13]: 0.003 ± 0.02

lMphg:SRB
level (log10) [1]: -0.0065 ± 0.016 | level (log10) [2]: 0.002 ± 0.0099 | level (log10) [3]: 0.008 ± 0.0057 | level (log10) ([4]; 740 nM): -0.0055 ± 0.0064 | level (log10) ([4]; 2200 nM): -0.003 ± 0.0028 | level (log10) ([5]; 2200 nM): -0.004 ± 0.013 | level (log10) ([5]; 6700 nM): -0.0055 ± 0.00071 | level (log10) ([5]; 20000 nM): -0.0025 ± 0.0035 | level (log10) ([5]; 60000 nM): 0.0035 ± 0.0078 | level (log10) [6]: -0.0065 ± 0.00071 | level (log10) [7]: -0.0085 ± 0.0064 | level (log10) ([8]; 740 nM): -0.002 ± 0.0028 | level (log10) ([8]; 2200 nM): -0.0085 ± 0.0021 | level (log10) ([9]; 2200 nM): -0.021 ± 0.0085 | level (log10) ([9]; 6700 nM): -0.0145 ± 0.013 | level (log10) ([9]; 20000 nM): -0.0205 ± 0.0021 | level (log10) ([9]; 60000 nM): -0.0205 ± 0.028 | level (log10) [10]: -0.008 ± 0.0042 | level (log10) [11]: -0.0105 ± 0.015 | level (log10) [12]: -0.015 ± 0.027 | level (log10) [13]: -0.0075 ± 0.0078

BF4T:MMP-3
level (log10) [1]: 0.0435 ± 0.028 | level (log10) [2]: -0.0035 ± 0.046 | level (log10) [3]: 0.0045 ± 0.046 | level (log10) ([4]; 740 nM): 0.004 ± 0.028 | level (log10) ([4]; 2200 nM): 0.0035 ± 0.012 | level (log10) ([5]; 2200 nM): 0.001 ± 0.0057 | level (log10) ([5]; 6700 nM): 0.004 ± 0.0057 | level (log10) ([5]; 20000 nM): 0.017 | level (log10) ([5]; 60000 nM): 0.0635 ± 0.035 | level (log10) [6]: 0.004 ± 0.014 | level (log10) [7]: 0.004 ± 0.021 | level (log10) ([8]; 740 nM): 0.0475 ± 0.042 | level (log10) ([8]; 2200 nM): 0.025 ± 0.0071 | level (log10) ([9]; 2200 nM): 0.003 ± 0.028 | level (log10) ([9]; 6700 nM): -0.0165 ± 0.00071 | level (log10) ([9]; 20000 nM): -0.0105 ± 0.0064 | level (log10) ([9]; 60000 nM): 0.0205 ± 0.037 | level (log10) [10]: 0.0135 ± 0.05 | level (log10) [11]: 0.009 ± 0.027 | level (log10) [12]: 0.014 ± 0.064 | level (log10) [13]: -0.008 ± 0.0042
